Results reported in PubChem BioAssay AID256 (DTP/NCI, 2004).
The list is a part of this screen's results and no random one: it is rich in T/C values a quarter to a half above the control, in often repeated tests (any T/C) and in doses without a T/C. Further doses and runs are listed elsewhere. T/C is the treated group as % of the vehicle group. Some doses have a count of surviving animals in place of a T/C: the source holds a T/C of zero for them, seemingly a mark for toxic or unscored doses. Some doses without a T/C left all or most animals alive at the check, yet need not have been tolerated: the source hardly ever lists a survival T/C far under the control, and the zero likely stands for such cases as well. Counts of survivors are from the toxicity check (mostly the fifth day) where no day follows; animals may have died later. Schedule codes are those of the source, taken here to give the interval after Q, in days (D) or hours (H), and the number of doses after X. Some entries hold several experiments; the values are given in rising order. Some schedules carry Z or #; the key to these is not given. Where survival is the endpoint, this PubChem deposit counts one and a half times the control or more as active, and values a quarter to a half above the control carry no call in these data; other NCI protocols may use other cut-offs. Some T/C values carry the count of animals alive at the toxicity check (mostly the fifth day); where none is given, no animal had died by that day.

System: CD2F1 mice, L1210 leukemia ip, survival T/C
Assay: NCI In Vivo Anticancer Drug Screen. Data for tumor model L1210 Leukemia (intraperitoneal) in CD2F1 (CDF1) mice
Settings: higher T/C = longer survival
How it was run: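 Antitumor effect is scored in animals hosting a serially transplanted tumor. Values compare compound-dosed animals against vehicle-only controls as a simple quotient.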

[1] = T/C endpoint: mean survival time, dose: 300.0 mg/kg/injection, schedule: Q01DX001 (ip), vehicle: saline
[2] = T/C endpoint: mean survival time, dose: 400.0 mg/kg/injection, schedule: Q01DX009 (ip), vehicle: saline with Tween-80
[3] = T/C endpoint: mean survival time, dose: 100.0 mg/kg/injection, schedule: Q04DX003 (ip), vehicle: saline with Tween-80
[4] = T/C endpoint: mean survival time, dose: 200.0 mg/kg/injection, schedule: Q04DX003 (ip), vehicle: saline with Tween-80
[5] = T/C endpoint: mean survival time, dose: 400.0 mg/kg/injection, schedule: Q04DX003 (ip), vehicle: saline with Tween-80
[6] = T/C endpoint: median survival time, dose: 400.0 mg/kg/injection, schedule: Q01DX005 (ip), vehicle: saline with Tween-80
[7] = T/C endpoint: mean survival time, dose: 20.0 mg/kg/injection, schedule: Q01DX009 (ip), vehicle: saline with Tween-80
[8] = T/C endpoint: mean survival time, dose: 200.0 mg/kg/injection, schedule: Q01DX009 (ip), vehicle: saline with Tween-80
[9] = T/C endpoint: mean survival time, dose: 200.0 mg/kg/injection, schedule: Q01DX001 (ip), vehicle: saline with Tween-80
[10] = T/C endpoint: mean survival time, dose: 400.0 mg/kg/injection, schedule: Q01DX001 (ip), vehicle: saline with Tween-80
[11] = T/C endpoint: mean survival time, dose: 150.0 mg/kg/injection, schedule: Q01DX001 (ip), vehicle: saline

For `[Cl][Pt+2][Cl].[NH-]c1ccc(CC(=O)O)cc1[NH-]`, the survivor count (T/C endpoint: mean survival time, dose: 50.0 mg/kg/injection, schedule: Q04DX003 (ip), vehicle: water) was 6 of 6, the survivor count (T/C endpoint: mean survival time, dose: 100.0 mg/kg/injection, schedule: Q04DX003 (ip), vehicle: water) was 6 of 6 and the survivor count (T/C endpoint: mean survival time, dose: 200.0 mg/kg/injection, schedule: Q04DX003 (ip), vehicle: water) was 3 of 6.
In the case of `O=C1c2ccccc2C(=O)c2cc(NS(=O)(=O)C(F)(F)F)ccc21`, the survivor count (T/C endpoint: mean survival time, dose: 400.0 mg/kg/injection, schedule: Q01DX001 (ip), vehicle: saline) is reported as 0 of 6.
In the case of `O=C1CC2OCCC3CN4CCC56c7ccccc7N1C5C2C3CC46` (stereo not given), the survivor count [1] is reported as 0 of 6.
With `Nc1ccc(/C=C/c2ccnc3ccccc23)cc1` the survivor count (T/C endpoint: mean survival time, dose: 32.0 mg/kg/injection, schedule: Q01DX Z (ip), vehicle: saline) was 6 of 6.
In the case of `O=C(O)/C=C/C(=O)Nc1ccc(Cl)cc1`, the survivor count [2] is reported as 0 of 6.
In the case of `NC(=S)NNC(=O)c1ccccc1`, the survivor count (T/C endpoint: mean survival time, dose: 400.0 mg/kg/injection, schedule: Q04DX003 (ip), vehicle: Klucel (hydroxypropylcellulose) (HPC)) is reported as 2 of 6.
With `O=S(=O)(Cl)c1cccc2c(S(=O)(=O)Cl)cccc12` the T/C (T/C endpoint: mean survival time, dose: 100.0 mg/kg/injection, schedule: Q04DX003 (ip), vehicle: Klucel (hydroxypropylcellulose) (HPC)) was 125 % of control.
For `O=C(CC(=O)CC(O)(C(F)(F)F)C(F)(F)F)CC(O)(C(F)(F)F)C(F)(F)F`, the survivor count (T/C endpoint: mean survival time, dose: 20.0 mg/kg/injection, schedule: Q04DX003 (ip), vehicle: saline) was 0 of 6, the survivor count [3] was 0 of 6 and the survivor count [4] was 0 of 6. For the same compound, the survivor count [5] was 0 of 6.
`NC(=O)c1[nH]cnc1O` was tested, and the survivor count (T/C endpoint: median survival time, dose: 240.0 mg/kg/injection, schedule: Q01DX005 (ip), vehicle: saline with Tween-80) was 3 of 6, the T/C [6] was 126 % of control and the survivor count [6] was 1 of 6. The survivor count (T/C endpoint: median survival time, dose: 667.0 mg/kg/injection, schedule: Q01DX005 (ip), vehicle: saline with Tween-80) was 0 of 6 and the survivor count (T/C endpoint: median survival time, dose: 1111.0 mg/kg/injection, schedule: Q01DX005 (ip), vehicle: saline with Tween-80) was 0 of 6.
For `N=P(N[P+](N)(c1ccccc1)c1ccccc1)(c1ccccc1)c1ccccc1`, the survivor count (T/C endpoint: mean survival time, dose: 12.5 mg/kg/injection, schedule: Q01DX009 (ip), vehicle: Klucel (hydroxypropylcellulose) (HPC)) was 3 of 6, the survivor count (T/C endpoint: mean survival time, dose: 25.0 mg/kg/injection, schedule: Q01DX009 (ip), vehicle: Klucel (hydroxypropylcellulose) (HPC)) was 0 of 6 and the survivor count (T/C endpoint: mean survival time, dose: 50.0 mg/kg/injection, schedule: Q01DX009 (ip), vehicle: Klucel (hydroxypropylcellulose) (HPC)) was 0 of 6.
With `[Cl][Pt+2][Cl].[NH-]C1CCCC1.[NH2-]` the T/C (T/C endpoint: mean survival time, dose: 1.56 mg/kg/injection, schedule: Q04DX003 (ip), vehicle: water) was 126 % of control, the T/C (T/C endpoint: mean survival time, dose: 6.25 mg/kg/injection, schedule: Q04DX003 (ip), vehicle: saline with Tween-80) was 143 % of control and the T/C (T/C endpoint: mean survival time, dose: 6.25 mg/kg/injection, schedule: Q04DX003 (ip), vehicle: water) was 128 % of control. For the same compound, the T/C (T/C endpoint: mean survival time, dose: 12.5 mg/kg/injection, schedule: Q04DX003 (ip), vehicle: saline with Tween-80) was 133 % of control, the survivor count (T/C endpoint: mean survival time, dose: 25.0 mg/kg/injection, schedule: Q04DX003 (ip), vehicle: saline with Tween-80) was 3 of 6 and the survivor count (T/C endpoint: mean survival time, dose: 50.0 mg/kg/injection, schedule: Q04DX003 (ip), vehicle: saline with Tween-80) was 3 of 6. For the same compound, the survivor count [3] was 0 of 6.
In the case of `Nc1nc(Cl)c2[nH]cnc2n1`, the T/C [7] is reported as 149 % of control, the T/C (T/C endpoint: mean survival time, dose: 30.0 mg/kg/injection, schedule: Q01DX009 (ip), vehicle: saline with Tween-80) is reported as 148 % of control and the T/C [8] is reported as 130 % of control. For the same compound, the T/C (T/C endpoint: mean survival time, dose: 225.0 mg/kg/injection, schedule: Q04DX003 (ip), vehicle: saline with Tween-80) was 147 % of control, the survivor count (T/C endpoint: mean survival time, dose: 300.0 mg/kg/injection, schedule: Q04DX003 (ip), vehicle: saline with Tween-80) was 6 of 6 and the survivor count [5] was 3 of 6.
In the case of `Cc1ccccc1-c1nc2c([nH]1)c(=O)n(C)c(=O)n2C`, the survivor count (T/C endpoint: mean survival time, dose: 100.0 mg/kg/injection, schedule: Q01DX005 (ip), vehicle: distilled water + Tween-80) is reported as 5 of 6.
With `CCC[CH2][Sn]1([CH2]CCC)[O]C2C(CO)OC(n3c(Br)c(C#N)c4c(N)ncnc43)C2[O]1` (stereo not given) the survivor count (T/C endpoint: mean survival time, dose: 6.25 mg/kg/injection, schedule: Q01DX005 (ip), vehicle: distilled water + Tween-80) was 2 of 6, the survivor count (T/C endpoint: mean survival time, dose: 12.5 mg/kg/injection, schedule: Q01DX005 (ip), vehicle: distilled water + Tween-80) was 1 of 6 and the survivor count (T/C endpoint: mean survival time, dose: 25.0 mg/kg/injection, schedule: Q01DX005 (ip), vehicle: distilled water + Tween-80) was 0 of 6.
For `N=[N+]=CC(=O)CC(N)C(=O)O` (stereo not given), the survivor count (T/C endpoint: median survival time, dose: 1600.0 mg/kg/injection, schedule: Q01DX001 (ip), vehicle: saline) was 1 of 6.
For `Nc1cc(=O)[nH]c(=S)[nH]1`, the survivor count (T/C endpoint: mean survival time, dose: 400.0 mg/kg/injection, schedule: Q04DX002 (ip), vehicle: saline with Tween-80) was 0 of 3.
For `C1CCC(C2CCCC[N-]2)[N-]C1.CC(C)C([NH-])C(=O)O.[Cl][Pt]` (stereo not given), the survivor count (T/C endpoint: median survival time, dose: 320.0 mg/kg/injection, schedule: Q04DX003 (ip), vehicle: saline) was 1 of 5.
For `C=CCNC(=O)C[n+]1cccc(C(=O)Nc2ccccc2)c1`, the survivor count [4] was 1 of 6 and the survivor count [5] was 0 of 6.
In the case of `CC[C@@]1(O)C[C@H](OC2CC(N(C)C)C(OC3CC(O)C(OC4CCC(=O)C(C)O4)C(C)O3)C(C)O2)c2c(cc3c(c2O)C(=O)c2c(O)ccc(O)c2C3=O)[C@H]1C(=O)OC` (stereo not given in full), the T/C (T/C endpoint: mean survival time, dose: 1.0 mg/kg/injection, schedule: Q01DX009 (ip), vehicle: water) is reported as 132 and 133 % of control [5 of 6 alive], the T/C (T/C endpoint: mean survival time, dose: 2.0 mg/kg/injection, schedule: Q01DX009 (ip), vehicle: water) is reported as 142 % of control and the survivor count (T/C endpoint: mean survival time, dose: 4.0 mg/kg/injection, schedule: Q01DX009 (ip), vehicle: water) is reported as 4 of 6 and 5 of 6. For the same compound, the survivor count (T/C endpoint: mean survival time, dose: 8.0 mg/kg/injection, schedule: Q01DX009 (ip), vehicle: water) was 2 of 6 and 3 of 6.
With `CC(=O)OCC1OC([Se][As](C)C)C(OC(C)=O)C(OC(C)=O)C1OC(C)=O` (stereo not given) the survivor count (T/C endpoint: mean survival time, dose: 25.0 mg/kg/injection, schedule: Q01DX001 (ip), vehicle: saline with Tween-80) was 2 of 6, the survivor count (T/C endpoint: mean survival time, dose: 100.0 mg/kg/injection, schedule: Q01DX001 (ip), vehicle: saline with Tween-80) was 1 of 6 and the survivor count [9] was 0 of 6. The survivor count [10] was 0 of 6.
In the case of `C1O[C@@H]1[C@H]1CO1`, the survivor count (T/C endpoint: mean survival time, dose: 75.0 mg/kg/injection, schedule: Q01DX001 (ip), vehicle: saline) is reported as 0 of 6, the survivor count [11] is reported as 0 of 6 and the survivor count [1] is reported as 0 of 6.
`CNC(=O)OCc1c(COC(=O)NC)c(C)n(-c2ccc(OC)cc2)c1C` was tested, and the survivor count (T/C endpoint: mean survival time, dose: 100.0 mg/kg/injection, schedule: Q01DX009 (ip), vehicle: Klucel (hydroxypropylcellulose) (HPC)) was 3 of 6.
In the case of `C/C=C/C(OC(C)=O)OC(C)=O`, the survivor count [2] is reported as 0 of 6.
`COc1ccc(CC2C(=O)NC(C)C(=O)N(C)C3Cc4ccc(cc4)Oc4cc(ccc4O)CC(C(=O)NC(C)C(=O)NC(C)C(=O)N2C)N(C)C3=O)cc1` (stereo not given) was tested, and the T/C (T/C endpoint: mean survival time, dose: 8.0 mg/kg/injection, schedule: Q01DX009 (ip), vehicle: saline with Tween-80) was 125 % of control [5 of 6 alive] and the T/C (T/C endpoint: median survival time, dose: 8.0 mg/kg/injection, schedule: Q01DX009 (ip), vehicle: saline with Tween-80) was 134 % of control.
In the case of `CC(C)(C)OC(=O)NC(CSC(c1ccccc1)(c1ccccc1)c1ccccc1)C(=O)NCC(=O)O` (stereo not given), the survivor count [11] is reported as 3 of 6 and the survivor count [1] is reported as 0 of 6.
`Cc1ccc(S(=O)(=O)OC(C#N)c2ccccc2)cc1` (stereo not given) was tested, and the survivor count [8] was 0 of 6 and the survivor count [10] was 0 of 6.
For `[B-][N+]1(C)CC[N+]([B-])(C)CC1` (stereo not given), the survivor count [7] was 4 of 6, the survivor count [3] was 0 of 6 and the survivor count [4] was 0 of 6. The survivor count [5] was 0 of 6.
`CCCC(C(CC)CN(C)C)N(C)C` (stereo not given) was tested, and the survivor count (T/C endpoint: mean survival time, dose: 50.0 mg/kg/injection, schedule: Q04DX002 (ip), vehicle: saline with Tween-80) was 2 of 6, the survivor count (T/C endpoint: mean survival time, dose: 100.0 mg/kg/injection, schedule: Q04DX002 (ip), vehicle: saline with Tween-80) was 0 of 6 and the survivor count [9] was 0 of 6.
For `CC(=O)Nc1cc([N+](=O)[O-])cc([N+](=O)[O-])c1O`, the survivor count [10] was 2 of 6.
